# Reference: the supplement of paper PMC7666118
# Sequences of proteins named here, by UniProt entry; tags and fusion partners are left off. A change or cut given only in a name is not applied to a line headed by its entry.
# UniProt P08236: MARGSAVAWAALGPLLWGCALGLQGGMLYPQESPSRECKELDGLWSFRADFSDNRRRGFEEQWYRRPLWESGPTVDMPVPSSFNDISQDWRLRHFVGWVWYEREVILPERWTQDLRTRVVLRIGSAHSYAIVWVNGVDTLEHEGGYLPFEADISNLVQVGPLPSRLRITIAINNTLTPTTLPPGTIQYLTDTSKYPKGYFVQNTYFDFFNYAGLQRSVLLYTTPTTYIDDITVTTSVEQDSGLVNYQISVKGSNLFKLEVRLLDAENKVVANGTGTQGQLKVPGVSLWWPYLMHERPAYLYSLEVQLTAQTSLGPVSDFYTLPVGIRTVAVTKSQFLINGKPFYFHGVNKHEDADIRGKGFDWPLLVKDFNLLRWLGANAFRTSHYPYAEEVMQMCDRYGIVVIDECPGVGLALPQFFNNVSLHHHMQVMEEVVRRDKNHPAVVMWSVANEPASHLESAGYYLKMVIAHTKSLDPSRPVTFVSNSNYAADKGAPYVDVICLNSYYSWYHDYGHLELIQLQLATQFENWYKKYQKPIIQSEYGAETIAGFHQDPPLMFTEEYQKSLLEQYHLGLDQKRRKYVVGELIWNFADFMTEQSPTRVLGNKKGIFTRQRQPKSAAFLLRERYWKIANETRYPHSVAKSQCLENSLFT
# UniProt P50395: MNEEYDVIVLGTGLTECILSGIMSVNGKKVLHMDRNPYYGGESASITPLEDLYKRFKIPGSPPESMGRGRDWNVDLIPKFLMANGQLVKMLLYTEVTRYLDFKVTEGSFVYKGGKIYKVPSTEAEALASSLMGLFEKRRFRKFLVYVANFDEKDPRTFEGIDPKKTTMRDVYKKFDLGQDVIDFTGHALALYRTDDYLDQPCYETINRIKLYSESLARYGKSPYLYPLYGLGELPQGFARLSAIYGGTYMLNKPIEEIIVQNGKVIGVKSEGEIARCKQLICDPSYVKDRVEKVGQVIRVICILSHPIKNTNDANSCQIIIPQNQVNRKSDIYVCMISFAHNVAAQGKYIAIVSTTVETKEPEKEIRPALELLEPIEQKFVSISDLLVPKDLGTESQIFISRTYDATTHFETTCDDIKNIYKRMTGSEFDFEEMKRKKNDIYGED
# UniProt Q04760: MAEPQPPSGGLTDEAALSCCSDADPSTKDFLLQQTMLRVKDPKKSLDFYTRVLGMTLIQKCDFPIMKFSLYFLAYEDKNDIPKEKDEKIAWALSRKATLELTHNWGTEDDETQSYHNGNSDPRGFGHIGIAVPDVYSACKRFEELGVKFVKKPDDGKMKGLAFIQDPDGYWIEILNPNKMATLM
# UniProt Q7Z4H3: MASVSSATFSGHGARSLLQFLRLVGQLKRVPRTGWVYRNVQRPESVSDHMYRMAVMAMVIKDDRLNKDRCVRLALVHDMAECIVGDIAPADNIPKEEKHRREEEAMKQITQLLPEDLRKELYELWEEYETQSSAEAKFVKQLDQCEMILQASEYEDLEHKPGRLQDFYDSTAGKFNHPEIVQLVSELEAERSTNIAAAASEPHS
# UniProt Q9UBI9: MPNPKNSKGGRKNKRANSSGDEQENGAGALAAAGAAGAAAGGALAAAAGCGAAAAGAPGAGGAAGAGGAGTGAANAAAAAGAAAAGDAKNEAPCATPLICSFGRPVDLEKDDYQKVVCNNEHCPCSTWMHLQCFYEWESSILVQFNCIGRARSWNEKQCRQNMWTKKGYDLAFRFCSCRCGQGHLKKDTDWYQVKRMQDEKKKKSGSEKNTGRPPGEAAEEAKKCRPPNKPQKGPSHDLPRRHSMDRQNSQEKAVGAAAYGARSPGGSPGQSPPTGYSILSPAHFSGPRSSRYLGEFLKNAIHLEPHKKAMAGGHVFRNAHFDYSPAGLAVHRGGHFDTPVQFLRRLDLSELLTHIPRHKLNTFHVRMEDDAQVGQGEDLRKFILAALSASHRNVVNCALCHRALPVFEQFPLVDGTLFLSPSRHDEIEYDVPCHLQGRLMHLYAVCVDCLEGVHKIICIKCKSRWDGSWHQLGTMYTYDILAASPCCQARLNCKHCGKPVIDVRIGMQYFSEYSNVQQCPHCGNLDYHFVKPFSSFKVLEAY
# UniProt Q9P2T1: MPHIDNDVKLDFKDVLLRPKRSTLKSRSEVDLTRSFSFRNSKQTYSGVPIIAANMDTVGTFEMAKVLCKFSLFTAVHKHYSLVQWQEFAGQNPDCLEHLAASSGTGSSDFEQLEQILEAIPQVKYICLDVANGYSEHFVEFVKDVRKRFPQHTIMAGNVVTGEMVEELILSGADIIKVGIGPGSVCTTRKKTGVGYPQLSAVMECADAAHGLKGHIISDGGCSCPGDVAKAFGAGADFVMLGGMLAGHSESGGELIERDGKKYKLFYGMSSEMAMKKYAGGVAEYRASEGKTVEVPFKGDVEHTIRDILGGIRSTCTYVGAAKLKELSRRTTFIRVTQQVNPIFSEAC
# UniProt Q9H9Y4: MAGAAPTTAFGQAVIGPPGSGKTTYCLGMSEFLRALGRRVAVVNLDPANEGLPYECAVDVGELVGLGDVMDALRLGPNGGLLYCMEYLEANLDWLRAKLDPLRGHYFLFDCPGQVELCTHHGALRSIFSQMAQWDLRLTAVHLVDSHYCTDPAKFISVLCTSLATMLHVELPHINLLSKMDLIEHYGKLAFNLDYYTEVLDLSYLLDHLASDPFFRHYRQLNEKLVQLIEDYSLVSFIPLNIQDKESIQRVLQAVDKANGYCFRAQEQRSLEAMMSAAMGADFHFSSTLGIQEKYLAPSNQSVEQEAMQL
# UniProt P09429: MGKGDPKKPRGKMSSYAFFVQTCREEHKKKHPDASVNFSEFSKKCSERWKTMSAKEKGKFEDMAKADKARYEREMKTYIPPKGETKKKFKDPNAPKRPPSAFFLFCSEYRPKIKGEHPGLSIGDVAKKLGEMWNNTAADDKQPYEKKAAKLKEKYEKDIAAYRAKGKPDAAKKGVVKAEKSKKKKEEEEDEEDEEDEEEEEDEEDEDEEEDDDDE
# UniProt P42694: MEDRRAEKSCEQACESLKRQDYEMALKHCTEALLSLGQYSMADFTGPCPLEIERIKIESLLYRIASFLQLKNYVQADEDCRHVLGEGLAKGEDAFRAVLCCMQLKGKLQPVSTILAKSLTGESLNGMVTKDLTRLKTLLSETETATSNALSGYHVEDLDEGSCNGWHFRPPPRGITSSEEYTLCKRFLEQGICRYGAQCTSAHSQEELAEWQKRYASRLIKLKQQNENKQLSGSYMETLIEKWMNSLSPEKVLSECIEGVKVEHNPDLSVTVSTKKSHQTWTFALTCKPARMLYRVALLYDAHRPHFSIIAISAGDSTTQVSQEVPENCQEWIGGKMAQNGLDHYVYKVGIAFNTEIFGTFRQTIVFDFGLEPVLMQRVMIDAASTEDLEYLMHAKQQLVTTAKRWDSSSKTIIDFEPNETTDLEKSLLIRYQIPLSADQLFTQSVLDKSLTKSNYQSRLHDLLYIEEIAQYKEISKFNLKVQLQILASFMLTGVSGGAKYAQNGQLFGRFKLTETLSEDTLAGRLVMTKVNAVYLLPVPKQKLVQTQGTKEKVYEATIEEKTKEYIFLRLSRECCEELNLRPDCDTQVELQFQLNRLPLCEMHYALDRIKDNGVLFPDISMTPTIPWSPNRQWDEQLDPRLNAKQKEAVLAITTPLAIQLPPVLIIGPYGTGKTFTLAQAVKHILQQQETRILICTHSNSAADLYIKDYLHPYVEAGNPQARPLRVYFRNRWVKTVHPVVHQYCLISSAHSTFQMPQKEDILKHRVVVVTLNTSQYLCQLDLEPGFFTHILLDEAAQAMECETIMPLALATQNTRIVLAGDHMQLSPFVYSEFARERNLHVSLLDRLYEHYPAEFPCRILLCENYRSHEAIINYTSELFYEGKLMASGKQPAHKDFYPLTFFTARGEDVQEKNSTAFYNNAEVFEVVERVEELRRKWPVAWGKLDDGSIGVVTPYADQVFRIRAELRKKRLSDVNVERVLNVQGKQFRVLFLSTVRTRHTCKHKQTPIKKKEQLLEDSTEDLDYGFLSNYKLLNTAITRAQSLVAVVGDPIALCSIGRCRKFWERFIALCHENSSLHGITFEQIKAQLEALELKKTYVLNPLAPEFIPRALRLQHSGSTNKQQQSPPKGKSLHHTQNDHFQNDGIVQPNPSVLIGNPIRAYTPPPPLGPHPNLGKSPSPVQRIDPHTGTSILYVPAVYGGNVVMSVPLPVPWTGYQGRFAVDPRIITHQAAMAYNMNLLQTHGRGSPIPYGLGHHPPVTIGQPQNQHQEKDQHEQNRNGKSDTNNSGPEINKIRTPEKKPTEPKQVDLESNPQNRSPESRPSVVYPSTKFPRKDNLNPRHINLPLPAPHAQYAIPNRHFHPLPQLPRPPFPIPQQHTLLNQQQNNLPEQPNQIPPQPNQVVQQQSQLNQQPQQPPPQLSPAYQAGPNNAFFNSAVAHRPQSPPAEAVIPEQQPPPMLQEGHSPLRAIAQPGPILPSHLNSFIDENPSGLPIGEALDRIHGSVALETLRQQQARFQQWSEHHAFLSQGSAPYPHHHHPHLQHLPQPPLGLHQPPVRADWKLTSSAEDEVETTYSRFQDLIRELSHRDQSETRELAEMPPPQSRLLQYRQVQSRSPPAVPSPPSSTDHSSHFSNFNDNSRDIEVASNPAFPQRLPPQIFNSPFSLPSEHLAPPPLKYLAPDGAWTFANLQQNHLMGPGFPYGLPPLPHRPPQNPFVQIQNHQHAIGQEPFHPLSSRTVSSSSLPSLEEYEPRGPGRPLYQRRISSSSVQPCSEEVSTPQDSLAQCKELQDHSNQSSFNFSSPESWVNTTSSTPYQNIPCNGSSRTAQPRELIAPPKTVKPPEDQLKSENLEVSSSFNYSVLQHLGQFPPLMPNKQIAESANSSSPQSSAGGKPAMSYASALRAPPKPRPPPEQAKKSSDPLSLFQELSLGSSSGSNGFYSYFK
# UniProt P06280: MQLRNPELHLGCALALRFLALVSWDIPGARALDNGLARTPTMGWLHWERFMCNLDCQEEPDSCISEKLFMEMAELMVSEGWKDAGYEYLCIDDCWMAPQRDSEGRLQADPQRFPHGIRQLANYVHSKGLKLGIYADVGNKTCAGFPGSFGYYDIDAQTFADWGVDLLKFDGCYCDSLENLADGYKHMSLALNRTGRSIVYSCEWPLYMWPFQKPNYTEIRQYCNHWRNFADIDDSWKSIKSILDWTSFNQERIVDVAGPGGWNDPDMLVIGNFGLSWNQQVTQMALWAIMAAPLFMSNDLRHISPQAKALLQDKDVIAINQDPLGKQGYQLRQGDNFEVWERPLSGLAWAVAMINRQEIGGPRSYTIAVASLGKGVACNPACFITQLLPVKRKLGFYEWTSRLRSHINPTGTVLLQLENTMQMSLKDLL
# UniProt P55084: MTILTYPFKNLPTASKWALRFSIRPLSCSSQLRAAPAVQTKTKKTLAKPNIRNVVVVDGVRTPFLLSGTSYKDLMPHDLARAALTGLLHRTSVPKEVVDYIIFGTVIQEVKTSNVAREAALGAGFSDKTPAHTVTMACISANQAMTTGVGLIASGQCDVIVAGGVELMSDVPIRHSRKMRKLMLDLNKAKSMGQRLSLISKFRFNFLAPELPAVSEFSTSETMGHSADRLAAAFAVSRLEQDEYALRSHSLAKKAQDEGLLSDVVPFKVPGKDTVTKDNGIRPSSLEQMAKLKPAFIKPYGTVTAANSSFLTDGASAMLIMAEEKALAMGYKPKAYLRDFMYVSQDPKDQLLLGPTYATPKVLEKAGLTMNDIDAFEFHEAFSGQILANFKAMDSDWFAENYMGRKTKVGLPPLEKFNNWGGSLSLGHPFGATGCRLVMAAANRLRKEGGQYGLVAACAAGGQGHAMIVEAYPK
# UniProt P13984, whole entry: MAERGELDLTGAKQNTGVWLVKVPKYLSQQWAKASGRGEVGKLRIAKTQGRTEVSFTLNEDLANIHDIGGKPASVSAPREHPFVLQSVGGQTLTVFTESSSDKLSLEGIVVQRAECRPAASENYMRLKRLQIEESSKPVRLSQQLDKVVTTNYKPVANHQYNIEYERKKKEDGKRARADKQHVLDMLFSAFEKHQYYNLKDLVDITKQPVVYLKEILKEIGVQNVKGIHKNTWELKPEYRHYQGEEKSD
# UniProt P51858: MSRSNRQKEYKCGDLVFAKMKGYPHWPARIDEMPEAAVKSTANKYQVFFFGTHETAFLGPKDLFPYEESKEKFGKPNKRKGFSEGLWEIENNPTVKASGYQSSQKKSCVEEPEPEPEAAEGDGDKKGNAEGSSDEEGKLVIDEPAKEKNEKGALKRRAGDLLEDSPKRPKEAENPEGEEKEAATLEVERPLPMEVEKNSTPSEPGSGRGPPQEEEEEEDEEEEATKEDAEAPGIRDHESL
# UniProt P09471, whole entry, looked up: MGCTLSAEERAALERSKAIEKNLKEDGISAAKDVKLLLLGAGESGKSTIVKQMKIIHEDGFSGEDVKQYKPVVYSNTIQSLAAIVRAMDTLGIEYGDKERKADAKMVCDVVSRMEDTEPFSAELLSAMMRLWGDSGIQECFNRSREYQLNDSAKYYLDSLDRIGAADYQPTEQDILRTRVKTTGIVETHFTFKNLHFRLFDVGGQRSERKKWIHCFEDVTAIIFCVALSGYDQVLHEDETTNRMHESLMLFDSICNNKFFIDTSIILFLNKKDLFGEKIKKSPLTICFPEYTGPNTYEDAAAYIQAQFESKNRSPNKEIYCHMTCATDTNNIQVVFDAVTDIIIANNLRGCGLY
# Some of the results follow.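 How the source made its calls: active = dose-dependent thermal stabilisation significant by F-test of dose-response against flat model at 10% FDR; inactive = not significant.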
# Compound: Nc1nc2c(ncn2[C@@H]2O[C@H](COP(=O)(O)OP(=O)(O)OP(=O)(O)O)[C@@H](O)[C@H]2O)c(=O)[nH]1
# Experiment: dose-dependent thermal stabilisation call (2D-TPP, DLPTP, 10% FDR) (binary (1 = stabilised)); higher = stabilised by the compound
# Conditions: system: Jurkat gel-filtered lysate; concentration range 1-500 µM
row,Target,dose-dependent thermal stabilisation call
1,GPATCH8 (UniProt Q9UKJ3),inactive: 0
2,GABPB1 (UniProt Q06547),inactive: 0
3,GUSB (UniProt P08236),inactive: 0
4,GDI2 (UniProt P50395),active: 1
5,GLO1 (UniProt Q04760),inactive: 0
6,GOLPH3 (UniProt Q9H4A6),inactive: 0
7,HIST1H1E (UniProt P10412),inactive: 0
8,HDDC2 (UniProt Q7Z4H3),inactive: 0
9,HECA (UniProt Q9UBI9),inactive: 0
10,GMPR2 (UniProt Q9P2T1),inactive: 0
11,GPS2 (UniProt Q13227),inactive: 0
12,GPN2 (UniProt Q9H9Y4),active: 1
13,HADH (UniProt Q16836),inactive: 0
14,GON4L (UniProt Q3T8J9),inactive: 0
15,GTF2A2 (UniProt P52657),inactive: 0
16,HMGB1 (UniProt P09429),inactive: 0
17,HMBS (UniProt P08397),inactive: 0
18,HELZ (UniProt P42694),inactive: 0

row,Target,dose-dependent thermal stabilisation call
1,HEATR5B (UniProt Q9P2D3),inactive: 0
2,GFM1 (UniProt Q96RP9),active: 1
3,GLA (UniProt P06280),active: 1
4,GM2A (UniProt P17900),inactive: 0
5,GTF3C2 (UniProt Q8WUA4),inactive: 0
6,HADHB (UniProt P55084),inactive: 0
7,GSPT2 (UniProt Q8IYD1),active: 1
8,HIST1H2BJ (UniProt P06899),inactive: 0
9,GTF2F2 (UniProt P13984),inactive: 0
10,GINS3 (UniProt Q9BRX5),inactive: 0
11,HDGF (UniProt P51858),inactive: 0
12,GTF2F1 (UniProt P35269),inactive: 0
13,GTF3C5 (UniProt Q9Y5Q8),inactive: 0
14,GLRX (UniProt P35754),inactive: 0
15,GOLGA4 (UniProt Q13439),inactive: 0
16,GNAO1 (UniProt P09471),inactive: 0
17,GMFG (UniProt O60234),inactive: 0
18,GDPGP1 (UniProt Q6ZNW5),inactive: 0

# No new results follow: entries from further up.
row,Target,dose-dependent thermal stabilisation call
15,GOLGA4 (UniProt Q13439),inactive: 0
16,GNAO1 (UniProt P09471),inactive: 0
17,GMFG (UniProt O60234),inactive: 0
